Experimental findings from PubChem BioAssay AID1347426 (Functional Genomics Laboratory (NCATS/FGL), 2020) are described below.

Hit rate of the full screen: of about 31,000 sequences, about 1,400 (4.5%) were called active.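 The calls were made as follows: active = median seed-adjusted z-score above 1 or below -1; inactive = the rest.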 The list shows a part of the results.

The assay can be described thus: Novel Modifiers of Survival Motor Neuron (SMN) Protein: Gene Identification via Genome-wide siRNA Screen. Particulars: HEK293T SMN2-luciferase reporter, siRNA knockdown, 72 h; actives lie on both sides. A digest of the protocol: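 Each of three siRNAs per gene is reverse-transfected (1 pmol) into reporter HEK293T cells whose luciferase output tracks SMN protein level. After 72 h culture, ONE-Glo luminescence is control-normalized, log10-transformed and MAD-standardized; Common Seed Analysis deprioritizes seed-driven hits.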
On the technique in general: In a reporter assay the amount or activity of a reporter protein is the signal.
On to CAAGCAGGAUGACAAGUUUTT against SLC22A14, for which the median seed-adjusted z-score was inactive: 0.215.

For the sequence GAUUCGUGAGAAUGACUUUTT against ERCC2, the median seed-adjusted z-score is inactive: -0.0551.

GGGAACAAAUGUGAUCUGATT against RAB1A: the median seed-adjusted z-score was inactive: 0.395. In the case of GUACUUCCGGGACCAUAUATT against IQGAP1, the median seed-adjusted z-score was inactive: -0.615. Regarding GCAAGAACCCAAGCCCACATT against NME4, the median seed-adjusted z-score is inactive: -0.155. CACUUUUUGUAAUACUUUUTT against MYOD1: the median seed-adjusted z-score is inactive: 0.309.

Consider GACCGGACCUUUUACCAAUTT against KIF1A, for which the median seed-adjusted z-score was inactive: 0.318. Consider GGUAUCACCUAUACAGAAATT against FKBP11, for which the median seed-adjusted z-score was inactive: -0.085. Take GCAAAUCGAGUGAUCGGAATT against UEVLD: the median seed-adjusted z-score was inactive: -0.0682.

GGUCUUAACUUUAUACUUATT against LEFTY2: the median seed-adjusted z-score was inactive: -0.33. Turning to GCUAAUCAGGAGCAACAGATT against NFAT5, the median seed-adjusted z-score was inactive: 0.106. On to GAAUCAUGUUAAGAAGAUATT against ZNF654, for which the median seed-adjusted z-score was inactive: 0.199. For GCCGAGACCUUUUAGUUCATT against HNRNPUL2, the median seed-adjusted z-score was inactive: -0.0273. The value for GUGCAGCCCUCUUACGCAATT against EGLN3 was inactive: -0.0575. ACAAAAGACAAGUUGAAGATT against TMPO: the median seed-adjusted z-score is inactive: -0.0406.

In the case of GAUAAACGGGUGGAAGUUATT against CPEB4, the median seed-adjusted z-score is inactive: -0.53. Consider AGAAGAUCCGAAAGAAAUATT against GABARAP, for which the median seed-adjusted z-score was inactive: 0.418. As to CACCGUCUAUUGUCAUUCATT against ADIPOR1, the median seed-adjusted z-score was inactive: 0.

Regarding GCACCAUAGUGACACUGAATT against IFNAR2, the median seed-adjusted z-score is inactive: -0.219. Turning to GUGUUUCACCUGUCUCGGATT against SLC9A5, the median seed-adjusted z-score is inactive: -0.545. The value for CAAUAGAUCCUCUAAAGGATT against F2RL1 was inactive: 0.138; that for CACUGUACAUUAUAGAACUTT against ZNF12 was inactive: -0.144.

As for GGCCUAAAAUUGAUGCAGUTT against MMP12, the median seed-adjusted z-score is inactive: 0.0476. Take CUGCGGCUCUUUGACAUUATT against POP4: the median seed-adjusted z-score was inactive: -0.144. As to CGCUGAUUUUCGAGUGUAATT against EHMT2, the median seed-adjusted z-score was inactive: 0.295. As for GGAGGACUGCCUACCUGUATT against OPTC, the median seed-adjusted z-score is inactive: 0.0953. On to CCAAAUGACCUGUACCCUATT against YBX2, for which the median seed-adjusted z-score was inactive: 0.362. Take GUGCUGCUCUGCAUACAAATT against CHI3L1: the median seed-adjusted z-score was inactive: 0.145. Turning to CACUGAACCCUGACAAUGATT against ARSH, the median seed-adjusted z-score is inactive: -0.0414.
